Patent US8148160B2, “Electrode for molecular sensing and method for molecular sensing” (Waseda University, priority 2008, dated 2012)

Assay: Molecular sensing by potential shift, DSS/APTES-modified ITO electrode
Settings: 0.0001 mol/L target molecules in phosphate buffer pH 7.4, room temperature, Ar; at time point potential no longer changed by ±0.5 mV or more for 5 minutes (15 min tryptamine, 40 min indolepropionic acid)

## NCCc1c[nH]c2ccccc12 [tryptamine]
  potential shift (ΔE=E−E0): −507 mV

## O=C(O)CCc1c[nH]c2ccccc12 [indolepropionic acid]
  potential shift (ΔE=E−E0): −396 mV
